Data on 1 substance can be found in PMC4640547.

These are yes or no findings as the source states them, for the method shown. In cells and extracts the contact can be indirect. Sequences can lack the tags named with a protein.

In the assay the target is T1, EGFP-tagged CD180 (human) (UniProt Q99467).
T1 sequence: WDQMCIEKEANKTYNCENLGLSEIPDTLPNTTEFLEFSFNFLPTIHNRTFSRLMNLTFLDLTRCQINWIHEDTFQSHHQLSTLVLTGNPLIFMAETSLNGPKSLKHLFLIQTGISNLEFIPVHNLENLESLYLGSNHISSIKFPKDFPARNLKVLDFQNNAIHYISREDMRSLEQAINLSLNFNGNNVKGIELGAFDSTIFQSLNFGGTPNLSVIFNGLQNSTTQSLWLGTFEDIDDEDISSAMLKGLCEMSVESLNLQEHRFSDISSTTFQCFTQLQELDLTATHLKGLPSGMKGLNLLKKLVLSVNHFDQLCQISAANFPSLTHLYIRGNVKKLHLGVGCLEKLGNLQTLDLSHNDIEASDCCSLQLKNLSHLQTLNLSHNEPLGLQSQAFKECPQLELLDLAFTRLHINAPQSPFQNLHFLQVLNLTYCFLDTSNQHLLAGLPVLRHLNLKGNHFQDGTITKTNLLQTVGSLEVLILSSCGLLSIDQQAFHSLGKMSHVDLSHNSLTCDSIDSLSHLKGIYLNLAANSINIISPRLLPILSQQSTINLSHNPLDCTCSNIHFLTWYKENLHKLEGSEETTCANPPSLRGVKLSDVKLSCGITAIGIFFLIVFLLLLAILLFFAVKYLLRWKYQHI
The assay can be described thus: co-IP; HEK cells transiently co-transfected with APP-tagged PIM-1L and EGFP-tagged CD180; precleared lysates immunoprecipitated with anti-GFP antibody and Protein G Sepharose; blot with anti-PIM-1.

For the substance “tagged, kinase-dead DN PIM-1L variant (K67M) (enzyme)”, the binding result is given as “no binding”.
